Assay results taken from patent US20220064255A1.
Results are given in words; binding and its absence hold for the method and conditions named. Some binding calls cover weakened binding; strength is not graded here.

Target: human TCRβV 6-5 on T cells (human)
Assay: flow cytometry on human CD3+ T cells, BHM1709 followed by a fluorochrome-conjugated secondary antibody

binding: binds
B1: BHM1709 (humanized) (antibody, V domains shown)
VH: QVQLVQSGAEVKKPGSSVKVSCKASGYSFTTYYIHWVRQAPGQGLEWMGWFFPGSGNIKYNEKFKGRVTITADTSTSTAYMELSSLRSEDTAVYYCAGSYYSYDVLDYWGQGTTVTVSS
VL: DIQMTQSPSFLSASVGDRVTITCKASQNVGINVVWHQQKPGKAPKALIYSSSHRYSGVPSRFSGSGSGTEFTLTISSLQPEDFATYFCQQFKSYPLTFGQGTKLEIK
